The results in this text go back to publication PMC6676524.

By UniProt entry, the sequences of proteins in these tests, tags left out. Residues count along the entry.
UniProt P35869, residues 11-848: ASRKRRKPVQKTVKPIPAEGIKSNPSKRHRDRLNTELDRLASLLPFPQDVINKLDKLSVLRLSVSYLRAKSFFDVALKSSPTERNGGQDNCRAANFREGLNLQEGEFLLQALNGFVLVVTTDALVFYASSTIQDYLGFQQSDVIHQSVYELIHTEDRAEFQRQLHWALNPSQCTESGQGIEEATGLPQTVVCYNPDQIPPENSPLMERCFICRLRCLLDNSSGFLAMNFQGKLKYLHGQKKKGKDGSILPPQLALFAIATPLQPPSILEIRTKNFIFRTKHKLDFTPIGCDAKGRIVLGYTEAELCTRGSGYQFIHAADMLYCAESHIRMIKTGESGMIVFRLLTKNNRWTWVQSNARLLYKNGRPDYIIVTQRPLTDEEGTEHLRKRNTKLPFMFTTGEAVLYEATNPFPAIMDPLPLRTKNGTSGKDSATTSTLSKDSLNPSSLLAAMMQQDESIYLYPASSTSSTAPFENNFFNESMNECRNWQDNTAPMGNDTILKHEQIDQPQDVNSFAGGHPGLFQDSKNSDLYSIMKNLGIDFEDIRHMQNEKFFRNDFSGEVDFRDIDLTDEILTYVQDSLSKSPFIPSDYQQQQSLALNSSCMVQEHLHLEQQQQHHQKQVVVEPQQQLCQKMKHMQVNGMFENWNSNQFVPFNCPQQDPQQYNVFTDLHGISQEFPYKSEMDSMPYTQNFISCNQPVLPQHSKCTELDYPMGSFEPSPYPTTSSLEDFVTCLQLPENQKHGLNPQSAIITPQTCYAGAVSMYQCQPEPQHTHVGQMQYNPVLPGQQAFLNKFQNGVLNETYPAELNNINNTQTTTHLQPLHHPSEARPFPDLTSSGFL

The target in experiment [1] is G protein estrogen receptor (GPER) (human (endogenous in SkBr3)) (UniProt Q99527). As to the kind of experiment: co-IP; SkBr3 cells treated with vehicle or 1 uM 3MC for 1 h; RIPA lysates (250 ug protein) immunoprecipitated with anti-GPER, anti-AHR or anti-EGFR antibodies and Protein A/G agarose; each immunoprecipitate immunoblotted for GPER, AHR and EGFR; nonspecific IgG as control. (In general: A western blot detects proteins with antibodies after separation by electrophoresis.)

Experiment [2] addresses aryl hydrocarbon receptor (AHR) (human (endogenous in SkBr3)) (UniProt P35869). Described as above.

These are yes or no findings as the source states them, for the method shown. Binding seen in cells or lysates may run through a third protein. Some results given as binding are weak or reduced against the parent protein; the word gives no strength.

As to “aryl hydrocarbon receptor (AHR) (from UniProt P35869 11-848)”, the binding result in experiment [1] was “binds”.
As to “epidermal growth factor receptor (EGFR) (from UniProt P00533 25-1210)”, the binding entry in experiment [1] and in experiment [2] was “binds” each time.
